From PMC3865253
Results are given in words; binding and its absence hold for the method and conditions named. In cells and extracts the contact can be indirect. Some entries that bind do so weakly or less than the wild type. For some of these results: Tags and fused reporters may be left off the sequences shown.

Experiments:
[1] = biological target: T1, GFP-ICA69 (islet cell autoantigen 69 kDa) (rat) (UniProt Q63054); assay: co-IP; 293T cells triple-transfected with myc-PKCα, HA-PICK1 and GFP-ICA69; precipitated with rabbit anti-GFP antibody; blots with anti-PICK1 and anti-myc
T1 sequence: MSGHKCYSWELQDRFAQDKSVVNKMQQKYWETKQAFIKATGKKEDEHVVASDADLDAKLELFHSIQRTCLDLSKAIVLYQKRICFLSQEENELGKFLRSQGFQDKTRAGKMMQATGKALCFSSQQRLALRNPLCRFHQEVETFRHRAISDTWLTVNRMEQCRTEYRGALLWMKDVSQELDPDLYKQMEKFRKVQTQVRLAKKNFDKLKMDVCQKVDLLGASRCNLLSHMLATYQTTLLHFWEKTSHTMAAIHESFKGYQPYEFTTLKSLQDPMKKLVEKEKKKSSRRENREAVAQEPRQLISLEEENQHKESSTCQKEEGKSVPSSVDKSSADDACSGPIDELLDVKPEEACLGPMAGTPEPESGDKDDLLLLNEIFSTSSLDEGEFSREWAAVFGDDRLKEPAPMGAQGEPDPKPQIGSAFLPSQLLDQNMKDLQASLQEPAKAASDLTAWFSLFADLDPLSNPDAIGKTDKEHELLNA

[2] = biological target: T2, ICA69, endogenous in rat brain (rat (endogenous in rat brain)) (UniProt Q63054); assay: co-IP; rat brain homogenate; precipitated with rabbit anti-ICA69 antibody; blots with anti-PKCα, anti-PICK1 and anti-ICA69; rabbit IgG as negative control
T2 sequence: T1 sequence

[3] = biological target: T1, GFP-ICA69 (islet cell autoantigen 69 kDa) (rat); assay: co-IP; 293T cells co-transfected with myc-PICK1 and GFP, GFP-ICA69 or a GFP-tagged truncation; RIPA lysate; precipitated with anti-GFP antibody on protein A-sepharose; blot with anti-myc; quantified as Co-IP myc/Input myc, normalized to the ICA69 group; 4 independent cultures
HA-PICK1 (rat) = HA-PICK1 (rat) (UniProt Q9EP80); assay: co-IP; 293T cells co-transfected with HA-PICK1 and myc-PKCα; precipitated with mouse anti-HA antibody; blot with anti-myc

HA-PICK1 (from UniProt Q9EP80 1-416) was tested, and the binding [1] was “binds”.

For “PICK1, endogenous in rat brain (from UniProt Q9EP80 1-416)”, the binding [2] was “binds”.

In the case of “myc-PICK1 (protein interacting with C-kinase 1) (from UniProt Q9EP80 1-416)”, the binding [3] is reported as “binds”.

For “myc-PKCα (from UniProt P05696 1-672) (enzyme)”, the binding (HA-PICK1 (rat)) was “binds”.
